From PubChem BioAssay AID2685 (National Center for Advancing Translational Sciences (NCATS), 2010)
The other results are listed elsewhere or left out. Further columns of the screen follow, without active or inactive calls. The list favours compounds with an active or inconclusive main result. Words in brackets tell the shape of the fitted curve; partial curves, single points and poor fits give uncertain potencies.

Assay: qHTS Assay for Lipid Storage Modulators in Drosophila S3 Cells;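 on cell number change: cells counted by Cell Tracker Red CMTPX staining in the red channel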
Details: BODIPY lipid droplet fluorescence, 18-24 h; for cell number change: measured here: cell count max response, cells fed with added oleic acid
Summary of the method: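 Drosophila S3 cells loaded with oleic acid (400 uM, as added) and compounds at several concentrations; lipid droplets imaged by 488-nm laser-scanning cytometry, 500–530 nm intensity and object ratio to cell channel. Percent activity normalized to 20 uM Triacsin C.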

[1] = measured here: cell number channel AC50, cells fed with added oleic acid
[2] = measured here: lipid fluorescence (Fed channel) AC50, cells fed with added oleic acid

SMILES | cell number change [%] | AC50 [1] | AC50 [2]
COc1ccc(Cn2c(SC)nc3ccccc32)cc1[N+](=O)[O-] | 142 | 29.1 µM [rising, single point] | 29.1 µM [rising, partial curve, poor fit]
CN(C)/C=C/c1onc(-c2ccccc2Cl)c1C#N | -45 | 11.6 µM [falling, partial curve, poor fit] | 25.9 µM [falling, single point]
Cc1ccc(NC(=O)C(NS(=O)(=O)c2cccc3nsnc23)C(C)C)nc1 (stereo not drawn) | -16.3 | 0.13 µM [falling, full curve, poor fit] | 0.651 µM [falling, full curve, poor fit]
Cc1c(CCOC(=O)C23CC4CC(CC(C)(C4)C2)C3)sc[n+]1Cc1ccccc1 | -36.2 | 6.51 µM [falling, partial curve] | 6.51 µM [falling, full curve]
CC(/C=C/c1cccc([N+](=O)[O-])c1)=N/NC(=O)c1cccnc1 | -33 | 29.1 µM [falling, single point] | –
NS(=O)(=O)c1cccc(NC(=O)COC(=O)CN2C(=O)c3ccccc3C2=O)c1 | 11.3 | – | 18.4 µM [rising, partial curve]
Cc1coc2cc3oc(=O)c(Cc4ccccc4)c(C)c3cc12 | 3 | – | 0.184 µM [rising, full curve, poor fit]
OCC[C@@H]1C[C@@H](O)[C@H](O)[C@]2(CCCCO2)O1 | 22.9 | 2.91 µM [rising, full curve, poor fit] | –
Cc1ccc(S(=O)(=O)N2CCCCC2)cc1NC(=O)C1CC(=O)N(Cc2ccco2)C1 (stereo not drawn) | -2.28 | 6.51 µM [rising, single point] | –
C#CC(C)(C)NC(=S)NC1CC2C=CC1C2 (stereo not drawn) | -21.1 | – | 29.1 µM [falling, single point]
COc1ccc2c(c1)C(NC(C)=O)C(=O)N2CCc1ccccc1 (stereo not drawn) | 8.11 | – | 0.82 µM [falling, single point]
CC(C)N=C(NS(=O)(=O)c1ccccc1)C(Cl)(Cl)Cl | -31.6 | 20.6 µM [falling, partial curve, poor fit] | 6.51 µM [rising, single point]
CC(C)c1nc(SCC(=O)NC2CCCC2)c2ccccc2n1 | -32.5 | 23.1 µM [falling, single point] | –
CC(C)(C)c1ccc(-c2noc(CCC(=O)N3CCOCC3)n2)cc1 | -68.7 | 16.4 µM [falling, partial curve] | 16.4 µM [falling, partial curve, poor fit]
COC(=O)c1ccc(OC)c(-c2c(OC)cc(OC)cc2OC)c1 | 25.3 | – | 4.61 µM [rising, full curve, poor fit]
O=C(NCC(=O)N1CCCCC1)c1ccc(Br)o1 | 9.19 | – | 0.13 µM [falling, full curve, poor fit]
Cc1c(CCC(=O)N2CCC[C@H]2C(=O)O)c(=O)oc2c(C)c3oc4c(c3cc12)CCCC4 | 30.4 | 29.1 µM [rising, single point] | –
CCOC(=O)[C@H]1[C@H]2COc3ccc(C)cc3[C@@H]2N2C(=O)CN(CC3CCCO3)C(=O)[C@@]12C (stereo partly drawn) | -21.9 | – | 0.103 µM [falling, full curve, poor fit]
O=C(CC1SC2=NCCN2C1=O)Nc1ccccc1 (stereo not drawn) | 42 | 23.1 µM [rising, single point] | –
CCc1cc(=O)oc2cc(OCC(=O)N3CCC(C(N)=O)CC3)ccc12 | 4.21 | – | 2.31 µM [rising, partial curve]

SMILES | cell number change [%] | AC50 [1] | AC50 [2]
COc1ccc(-c2ccc(=O)n(CC(=O)NCc3ccco3)n2)cc1 | 12.4 | – | 18.4 µM [rising, partial curve]
CCN1C(=O)C2C(c3cccc(F)c3)NC(C)(C(=O)OC)C2C1=O (stereo not drawn) | 0.166 | – | 29.1 µM [falling, partial curve]
COCCCn1c(C(=O)NCCC2=CCCCC2)cc2c(=O)n3ccccc3nc21 | 8.02 | – | 5.8 µM [falling, single point]
Cc1cnc(C)c(N2CCC(C(=O)NCc3ccco3)CC2)n1 | -7.48 | 7.31 µM [rising, single point] | –
CCn1c(=O)c2sccc2n(Cc2cc(C(=O)OC)ccc2OC)c1=O | 6.42 | – | –
O=C(c1ccc(OC2CCN(Cc3cccc(F)c3)CC2)cc1)N1CCCCC1 | -1.76 | – | 16.4 µM [rising, partial curve]
O=C(C1CCC(CNS(=O)(=O)c2cccs2)CC1)N1CCN(c2ccc(F)cc2)CC1 (stereo not drawn) | -44.4 | 5.8 µM [falling, partial curve, poor fit] | –
Cc1occc1-c1nnc(SCC(=O)Nc2ccc3c(c2)OCO3)n1CC1CCCO1 (stereo not drawn) | -16.7 | 0.651 µM [falling, full curve, poor fit] | –
COC(=O)c1cc(C(=O)Nc2ccc(S(=O)(=O)NC(C)(C)C)cc2)cc([N+](=O)[O-])c1 | -3.1 | – | 0.291 µM [falling, full curve, poor fit]
COc1ccc(C(=O)NC(=S)Nc2nnn(C)n2)cc1 | -9.79 | – | 0.0651 µM [falling, full curve, poor fit]
O=C(Cc1ccc([N+](=O)[O-])cc1)NNC(=O)c1ccc2c(c1)OCO2 | 14.7 | – | 0.58 µM [rising, single point]
CCC1(C)SC(NC(C)=O)=NN1C(C)=O (stereo not drawn) | -7.85 | – | –
CCN(CC(=O)Nc1c(F)cccc1F)C(=O)c1cnccn1 | 7.14 | – | 2.59 µM [rising, partial curve]
COC(=O)C1=COC(C)C2CN3CCc4c([nH]c5cc(OC)c(OC)cc45)C3CC12 (stereo not drawn) | -10.8 | – | 23.1 µM [falling, single point]
CCCCn1c(N)c(Sc2ccc(Cl)cc2)c(=O)[nH]c1=O | 9.62 | – | 6.51 µM [falling, single point]
Cc1cc(C(=O)OCC(=O)Nc2cccc(S(=O)(=O)N3CCOCC3)c2)c(C)o1 | 16.6 | – | 2.06 µM [rising, partial curve]
CN1CCN(CC#CCC2(O)c3ccccc3-c3ccccc32)CC1 | 27.7 | – | 0.651 µM [rising, full curve, poor fit]
COc1ccc(N(Cc2cc3cccc(C)c3[nH]c2=O)S(=O)(=O)c2ccc(OC)cc2)cc1 | -1.53 | – | –
Cc1ccc2nc(Cl)c(/C=N/NC(=O)c3ccccc3O)cc2c1 | 17.7 | – | 23.1 µM [rising, single point]
O=C(Nc1c2c(nn1-c1ccc(F)cc1)CS(=O)C2)C12CC3CC(CC(C3)C1)C2 (stereo not drawn) | 30.2 | 20.6 µM [rising, single point] | –

For convenience, 2 of the compounds above.
SMILES | cell number change [%] | AC50 [1] | AC50 [2]
Cc1ccc2nc(Cl)c(/C=N/NC(=O)c3ccccc3O)cc2c1 | 17.7 | – | 23.1 µM [rising, single point]
O=C(Nc1c2c(nn1-c1ccc(F)cc1)CS(=O)C2)C12CC3CC(CC(C3)C1)C2 (stereo not drawn) | 30.2 | 20.6 µM [rising, single point] | –

Further entries

SMILES | cell number change [%] | AC50 [1] | AC50 [2]
Cn1c(N)c(C(=O)CN2CCc3ccccc3C2)c(=O)n(C)c1=O | 14.8 | – | –
COCCn1c(SCC(=O)NC2CCCC2)nc2c(c1=O)SCC2 | 16.1 | – | 6.51 µM [rising, single point]
CC1c2cccn2CCN1S(=O)(=O)c1ccc(F)cc1 (stereo not drawn) | -16.9 | – | 16.4 µM [falling, single point]
Cc1cc(/C=N/NC(N)=S)c(C)n1-c1ccc(Cl)c(Cl)c1 | -33.4 | 29.1 µM [falling, single point] | 29.1 µM [falling, single point]
O=C(Nc1nnc(-c2ccc(F)cc2)s1)c1ccco1 | -4.76 | – | –
COc1c(C(C)C)oc2cc3oc(=O)ccc3cc12 | -6.15 | – | –
O=C(N/N=C\c1cccc(OC(=O)c2ccco2)c1)c1ccc2c(c1)OCO2 | – | – | 1.16 µM [rising, full curve]
Cc1c(C(=O)Nc2cccc([N+](=O)[O-])c2)cnn1-c1ccccc1 | -8.78 | – | –
COc1ccccc1NC(=O)COC(=O)c1c[nH]c(=O)[nH]c1=O | -12.1 | – | 32.6 µM [falling, single point]
Cc1ccc(C2C3=C(CC(C)(C)CC3=O)N(CCN3CCOCC3)C3=C2C(=O)CC(C)(C)C3)cc1 | 27.3 | – | 16.4 µM [rising, partial curve]
N#Cc1ccc(OCC(O)CS(=O)(=O)c2ccc(F)cc2)cc1 (stereo not drawn) | -2.94 | 0.058 µM [rising, full curve, poor fit] | –
CC(C)(C)C1C/C(=C/c2ccccn2)C(=O)/C(=C/c2ccccn2)C1 (stereo not drawn) | -51.5 | 23.1 µM [falling, single point] | 18.4 µM [falling, single point]
Clc1cccc(Cl)c1CON/C=N/c1ncnc2sccc12 | – | 2.06 µM [rising, partial curve] | 1.64 µM [rising, partial curve]
COc1ccc(OCC(=O)Nc2cccc(C(C)=O)c2)cc1 | 43.7 | – | 32.6 µM [rising, partial curve, poor fit]
O=C(NCc1ccccc1CN1CCCC1)c1cc2cc(Cl)ccc2o1 | 5.57 | – | 0.651 µM [falling, single point]
O=C(CCCOc1ccccc1)Nc1cccc(S(=O)(=O)N2CCCCC2)c1 | 17 | – | 4.61 µM [falling, partial curve]
CCCC(=O)N1CCN(c2ccc(NC(=S)NC(=O)c3cccc(C)c3)cc2)CC1 | -23.4 | 0.0058 µM [falling, full curve, poor fit] | 1.16 µM [falling, full curve]
COc1ccc(CSc2nncn2C)cc1F | -25.2 | 0.013 µM [falling, full curve, poor fit] | 0.0291 µM [falling, full curve, poor fit]

Fetched by structure from the entries so far (2):
SMILES | cell number change [%] | AC50 [1] | AC50 [2]
Cc1cc(C(=O)OCC(=O)Nc2cccc(S(=O)(=O)N3CCOCC3)c2)c(C)o1 | 16.6 | – | 2.06 µM [rising, partial curve]
O=C(c1ccc(OC2CCN(Cc3cccc(F)c3)CC2)cc1)N1CCCCC1 | -1.76 | – | 16.4 µM [rising, partial curve]
